In publication PMC8950481:
No constants are given. Whether binding was seen depends on the method and setting. For some assays here: Binding seen in cells or lysates may run through a third protein. Some binding calls cover weakened binding; strength is not graded here. Sequences can lack the tags named with a protein.

The chains behind the UniProt entries cited, without tags or fusion partners.
UniProt P93002: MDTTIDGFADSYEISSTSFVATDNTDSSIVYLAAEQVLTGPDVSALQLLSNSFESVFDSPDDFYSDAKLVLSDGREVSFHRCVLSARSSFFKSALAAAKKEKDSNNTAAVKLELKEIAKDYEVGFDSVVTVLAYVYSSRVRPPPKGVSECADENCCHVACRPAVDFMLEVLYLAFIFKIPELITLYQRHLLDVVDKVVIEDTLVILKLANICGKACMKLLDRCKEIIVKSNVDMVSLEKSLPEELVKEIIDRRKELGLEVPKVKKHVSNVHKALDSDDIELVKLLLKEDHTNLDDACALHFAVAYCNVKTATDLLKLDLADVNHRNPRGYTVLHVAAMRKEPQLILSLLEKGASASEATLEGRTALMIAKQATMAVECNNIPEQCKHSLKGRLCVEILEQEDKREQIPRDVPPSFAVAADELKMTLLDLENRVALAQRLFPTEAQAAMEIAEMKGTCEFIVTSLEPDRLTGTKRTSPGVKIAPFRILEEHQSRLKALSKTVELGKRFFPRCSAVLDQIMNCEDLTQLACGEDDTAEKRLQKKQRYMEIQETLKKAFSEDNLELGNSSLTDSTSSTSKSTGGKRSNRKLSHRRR

Experiments:
[1] = biological target: T1, HOS15, full-length, yeast two-hybrid fusion (Arabidopsis thaliana) (UniProt Q9FN19); experiment: two-hybrid; yeast strain PJ694A; pDEST32 (BD, bait) and pDEST22 (AD, prey); growth on -TLH against -TL control medium; three independent transformants; empty vectors as negative controls
T1 sequence: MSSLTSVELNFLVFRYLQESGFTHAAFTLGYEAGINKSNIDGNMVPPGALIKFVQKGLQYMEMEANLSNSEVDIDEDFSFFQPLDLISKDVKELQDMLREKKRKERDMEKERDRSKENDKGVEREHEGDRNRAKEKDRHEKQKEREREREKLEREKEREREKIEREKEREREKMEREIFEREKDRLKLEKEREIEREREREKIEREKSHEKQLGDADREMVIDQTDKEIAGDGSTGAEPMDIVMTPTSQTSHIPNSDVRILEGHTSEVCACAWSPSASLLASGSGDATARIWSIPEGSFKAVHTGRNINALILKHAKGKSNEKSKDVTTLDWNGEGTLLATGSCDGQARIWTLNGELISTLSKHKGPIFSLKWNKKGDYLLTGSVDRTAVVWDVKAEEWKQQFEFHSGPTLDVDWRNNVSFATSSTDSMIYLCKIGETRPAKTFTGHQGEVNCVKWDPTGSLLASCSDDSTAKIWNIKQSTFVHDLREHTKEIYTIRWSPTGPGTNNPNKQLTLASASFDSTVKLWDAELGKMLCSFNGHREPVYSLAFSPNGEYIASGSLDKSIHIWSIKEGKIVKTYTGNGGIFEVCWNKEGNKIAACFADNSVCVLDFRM

[2] = biological target: T2, HOS15-GFP (Arabidopsis thaliana) (UniProt Q9FN19); experiment: co-IP; HOS15-GFP and NPR1-HA co-infiltrated in N. benthamiana leaves, extracted after three days; immunoprecipitated with anti-GFP, blotted with anti-HA
T2 sequence: T1 sequence

Row | binding [1] | binding [2] | Substance
1 | binds |  | Non-expresser of PR genes 1 (NPR1), full-length, yeast two-hybrid fusion (from UniProt P93002 1-593)
2 |  | binds | NPR1-HA (from UniProt P93002 1-593)
